# Test results taken from US20030143729A1 (Synaptic Pharmaceutical Corporation, priority 1992, published 2003).
# Some of these results come from one statement about several compounds together. At least one structure is not confirmed: it was looked up by name or label, or the drawing left a doubt.
# Biological target: T1, taurine transporter (rB16a) (Rattus norvegicus, UniProt P31643)
# T1 sequence (P31643 1-621): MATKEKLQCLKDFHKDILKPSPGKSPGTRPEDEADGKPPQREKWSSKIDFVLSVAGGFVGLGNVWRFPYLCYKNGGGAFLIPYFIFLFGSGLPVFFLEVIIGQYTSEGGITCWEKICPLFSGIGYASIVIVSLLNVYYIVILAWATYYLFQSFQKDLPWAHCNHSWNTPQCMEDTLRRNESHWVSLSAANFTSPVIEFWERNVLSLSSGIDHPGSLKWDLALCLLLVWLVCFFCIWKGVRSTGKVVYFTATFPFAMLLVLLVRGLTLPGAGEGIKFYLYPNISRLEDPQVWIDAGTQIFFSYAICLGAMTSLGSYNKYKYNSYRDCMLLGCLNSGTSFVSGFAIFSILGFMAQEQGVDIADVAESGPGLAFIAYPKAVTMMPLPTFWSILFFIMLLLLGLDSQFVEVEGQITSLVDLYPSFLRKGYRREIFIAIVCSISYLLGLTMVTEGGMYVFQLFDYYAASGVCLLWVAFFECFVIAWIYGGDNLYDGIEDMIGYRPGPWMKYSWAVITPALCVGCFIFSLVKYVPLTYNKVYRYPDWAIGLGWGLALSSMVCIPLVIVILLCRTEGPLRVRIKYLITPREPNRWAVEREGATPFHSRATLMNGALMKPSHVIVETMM
# Assay: [3H]taurine uptake by COS-7 cells transfected with rB16a
# Conditions: inhibitor 1 mM; 50 nM [3H]taurine, 10 minutes, 37° C.
smiles,measurement,value
N[C@@H](CCC(=O)O)C(=O)O [glutamate],"% Inhibition of [3H]taurine uptake, rB16a",Less than 10%
